Test results: paper PMC9483116, “Deubiquitination of BES1 by UBP12/UBP13 promotes brassinosteroid signaling and plant growth” (Plant Communications, 2022)
These are yes or no findings as the source states them, for the method shown. Binding seen in cells or lysates may run through a third protein. Some entries that bind do so weakly or less than the wild type. Where a sequence is shown, tags or fusion partners need not be part of it.

Amino acid sequences for entries named in this document (tags omitted).
UniProt Q9LN63: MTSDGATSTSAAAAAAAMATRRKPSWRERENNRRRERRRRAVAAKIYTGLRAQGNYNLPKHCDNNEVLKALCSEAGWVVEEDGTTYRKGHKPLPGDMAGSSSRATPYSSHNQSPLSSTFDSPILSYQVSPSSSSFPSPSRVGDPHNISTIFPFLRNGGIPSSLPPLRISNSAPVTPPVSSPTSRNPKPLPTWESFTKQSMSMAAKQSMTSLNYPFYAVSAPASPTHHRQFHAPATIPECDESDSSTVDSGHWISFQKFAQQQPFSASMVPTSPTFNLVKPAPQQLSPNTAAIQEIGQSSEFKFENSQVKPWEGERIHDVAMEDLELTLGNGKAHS
UniProt Q8S307: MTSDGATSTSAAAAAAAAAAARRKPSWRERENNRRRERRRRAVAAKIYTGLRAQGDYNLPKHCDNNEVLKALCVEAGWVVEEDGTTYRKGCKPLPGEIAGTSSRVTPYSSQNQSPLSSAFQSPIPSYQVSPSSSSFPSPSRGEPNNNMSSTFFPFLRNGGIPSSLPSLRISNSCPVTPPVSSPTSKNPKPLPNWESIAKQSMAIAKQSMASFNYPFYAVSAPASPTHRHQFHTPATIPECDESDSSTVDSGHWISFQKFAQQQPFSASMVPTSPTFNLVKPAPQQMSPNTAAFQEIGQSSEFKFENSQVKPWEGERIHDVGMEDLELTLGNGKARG

Experiments:
[1] = biological target: T1, UBP12-HA (Arabidopsis thaliana) (UniProt Q9FPT1); experiment: co-IP; extracts of 7-day-old 35S:BES1-myc/UBQ10:UBP12-HA seedlings treated with 50 uM MG132 with or without 1 uM eBL for 6 h; 50 mM Tris-HCl pH 7.4, 100 mM NaCl, 0.2% Triton X-100, 1 mM DTT; IP with anti-HA or anti-myc and protein A-agarose, blot with anti-myc or anti-HA
T1 sequence: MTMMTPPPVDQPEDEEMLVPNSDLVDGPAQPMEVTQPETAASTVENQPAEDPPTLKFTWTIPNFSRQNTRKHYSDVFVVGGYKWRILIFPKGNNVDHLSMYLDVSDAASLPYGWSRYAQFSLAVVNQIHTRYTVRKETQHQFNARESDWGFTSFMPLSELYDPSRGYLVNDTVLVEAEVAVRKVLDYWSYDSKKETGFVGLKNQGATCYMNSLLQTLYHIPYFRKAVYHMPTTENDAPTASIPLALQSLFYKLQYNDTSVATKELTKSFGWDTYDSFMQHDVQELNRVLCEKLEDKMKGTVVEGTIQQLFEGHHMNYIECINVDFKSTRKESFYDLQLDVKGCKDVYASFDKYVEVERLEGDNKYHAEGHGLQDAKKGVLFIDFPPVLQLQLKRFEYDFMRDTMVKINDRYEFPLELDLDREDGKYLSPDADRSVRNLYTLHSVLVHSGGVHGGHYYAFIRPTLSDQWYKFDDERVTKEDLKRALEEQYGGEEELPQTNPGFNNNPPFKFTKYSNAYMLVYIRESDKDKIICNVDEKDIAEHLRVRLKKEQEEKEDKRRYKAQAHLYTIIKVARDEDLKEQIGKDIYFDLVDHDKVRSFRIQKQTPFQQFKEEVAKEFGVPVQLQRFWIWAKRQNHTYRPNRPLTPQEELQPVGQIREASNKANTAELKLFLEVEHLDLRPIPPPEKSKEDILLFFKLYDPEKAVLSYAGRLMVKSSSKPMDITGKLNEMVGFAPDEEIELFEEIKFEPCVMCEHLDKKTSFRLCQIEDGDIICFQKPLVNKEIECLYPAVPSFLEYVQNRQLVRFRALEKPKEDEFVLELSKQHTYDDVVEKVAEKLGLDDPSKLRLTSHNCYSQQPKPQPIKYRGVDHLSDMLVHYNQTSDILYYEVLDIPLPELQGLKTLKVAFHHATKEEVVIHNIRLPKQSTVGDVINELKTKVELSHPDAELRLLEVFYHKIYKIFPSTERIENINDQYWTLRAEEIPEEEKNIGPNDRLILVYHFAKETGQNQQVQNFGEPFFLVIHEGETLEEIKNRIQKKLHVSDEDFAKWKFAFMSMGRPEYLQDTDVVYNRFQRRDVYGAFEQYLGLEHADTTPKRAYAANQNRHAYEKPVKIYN

GST-UBP12 (full-length) = biological target: T2, GST-UBP12 (full-length) (Arabidopsis thaliana, UniProt Q9FPT1 1-1116); experiment: pull-down; semi-in vivo; resin-bound GST or GST-UBP12 incubated at 4°C for 2 h with total protein extracts of 7-day-old 35S:BES1-myc seedlings treated with or without 1 uM eBL for 6 h; 100 mM Tris-HCl pH 7.5, 300 mM NaCl, 2 mM EDTA, 1% Triton X-100, 10% glycerol; anti-myc blot; only the target purified
T2 construct: UBP12 (ubiquitin-specific protease 12), Arabidopsis thaliana, At5g06600; full length (1-1116 by the limits printed for its N and C derivatives); not shown: GST, N-terminal, kept
T2 sequence (looked up): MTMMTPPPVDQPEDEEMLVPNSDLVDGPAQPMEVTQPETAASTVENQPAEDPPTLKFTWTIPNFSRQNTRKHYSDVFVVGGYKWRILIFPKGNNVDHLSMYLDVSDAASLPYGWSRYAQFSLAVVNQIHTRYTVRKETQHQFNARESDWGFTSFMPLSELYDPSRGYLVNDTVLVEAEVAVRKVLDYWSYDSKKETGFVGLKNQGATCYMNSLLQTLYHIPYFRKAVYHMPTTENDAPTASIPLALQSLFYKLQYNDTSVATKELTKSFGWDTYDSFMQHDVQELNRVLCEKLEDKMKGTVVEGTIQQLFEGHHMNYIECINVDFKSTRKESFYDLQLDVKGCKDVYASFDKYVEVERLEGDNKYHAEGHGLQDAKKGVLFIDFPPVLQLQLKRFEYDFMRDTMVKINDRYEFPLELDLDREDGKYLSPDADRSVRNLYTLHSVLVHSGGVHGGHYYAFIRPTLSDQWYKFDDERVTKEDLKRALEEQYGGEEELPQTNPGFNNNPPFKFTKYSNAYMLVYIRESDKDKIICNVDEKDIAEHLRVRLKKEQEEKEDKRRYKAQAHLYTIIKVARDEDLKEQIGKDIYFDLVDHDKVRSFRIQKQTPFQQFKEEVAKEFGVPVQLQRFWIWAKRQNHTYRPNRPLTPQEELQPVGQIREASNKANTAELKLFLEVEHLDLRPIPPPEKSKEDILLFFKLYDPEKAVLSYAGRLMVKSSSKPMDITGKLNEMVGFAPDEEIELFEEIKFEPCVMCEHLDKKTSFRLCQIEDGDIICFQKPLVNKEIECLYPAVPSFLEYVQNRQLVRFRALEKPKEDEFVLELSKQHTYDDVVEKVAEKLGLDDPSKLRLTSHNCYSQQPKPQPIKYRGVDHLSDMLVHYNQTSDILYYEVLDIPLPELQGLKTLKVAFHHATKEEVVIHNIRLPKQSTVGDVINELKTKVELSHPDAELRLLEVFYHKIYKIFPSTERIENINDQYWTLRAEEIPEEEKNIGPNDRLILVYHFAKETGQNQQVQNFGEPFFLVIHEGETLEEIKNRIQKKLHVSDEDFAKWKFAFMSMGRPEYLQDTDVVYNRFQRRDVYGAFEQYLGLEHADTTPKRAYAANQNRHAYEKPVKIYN

[2] = biological target: T3, UBP13-cYFP (Arabidopsis thaliana) (UniProt Q84WU2); experiment: split reporter; BiFC (split YFP) in N. benthamiana leaves infiltrated with Agrobacterium; confocal images 3 days after infiltration; with mCherry-NLS
T3 sequence: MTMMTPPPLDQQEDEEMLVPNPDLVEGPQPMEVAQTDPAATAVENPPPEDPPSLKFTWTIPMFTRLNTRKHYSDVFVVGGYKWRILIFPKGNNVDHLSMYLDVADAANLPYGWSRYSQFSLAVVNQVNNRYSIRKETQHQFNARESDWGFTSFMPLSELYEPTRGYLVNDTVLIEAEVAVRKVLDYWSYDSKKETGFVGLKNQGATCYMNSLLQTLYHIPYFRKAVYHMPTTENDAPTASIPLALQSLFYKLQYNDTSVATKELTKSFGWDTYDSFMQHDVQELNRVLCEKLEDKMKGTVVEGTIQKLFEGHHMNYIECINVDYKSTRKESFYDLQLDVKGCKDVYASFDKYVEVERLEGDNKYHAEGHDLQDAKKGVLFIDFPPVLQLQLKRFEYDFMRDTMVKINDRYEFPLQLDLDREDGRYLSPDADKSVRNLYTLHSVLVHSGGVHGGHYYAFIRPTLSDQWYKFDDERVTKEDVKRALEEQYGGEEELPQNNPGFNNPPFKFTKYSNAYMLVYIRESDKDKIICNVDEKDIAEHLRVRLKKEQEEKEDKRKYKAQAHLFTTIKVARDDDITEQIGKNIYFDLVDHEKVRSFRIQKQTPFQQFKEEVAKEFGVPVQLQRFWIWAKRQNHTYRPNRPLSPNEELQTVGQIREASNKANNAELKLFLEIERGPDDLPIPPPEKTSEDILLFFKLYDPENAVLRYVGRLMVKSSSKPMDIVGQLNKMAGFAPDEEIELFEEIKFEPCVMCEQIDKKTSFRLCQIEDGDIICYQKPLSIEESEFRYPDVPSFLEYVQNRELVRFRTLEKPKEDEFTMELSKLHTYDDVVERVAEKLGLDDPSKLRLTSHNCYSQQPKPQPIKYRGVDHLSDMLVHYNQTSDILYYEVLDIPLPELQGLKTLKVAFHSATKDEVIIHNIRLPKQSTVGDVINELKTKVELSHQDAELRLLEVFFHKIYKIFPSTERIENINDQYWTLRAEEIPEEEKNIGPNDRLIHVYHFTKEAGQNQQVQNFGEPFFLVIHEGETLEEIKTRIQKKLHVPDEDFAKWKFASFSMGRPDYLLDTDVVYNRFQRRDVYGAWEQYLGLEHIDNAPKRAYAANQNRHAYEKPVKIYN

[3] = biological target: T4, UBP12-cYFP (Arabidopsis thaliana) (UniProt Q9FPT1); experiment: as above
T4 sequence: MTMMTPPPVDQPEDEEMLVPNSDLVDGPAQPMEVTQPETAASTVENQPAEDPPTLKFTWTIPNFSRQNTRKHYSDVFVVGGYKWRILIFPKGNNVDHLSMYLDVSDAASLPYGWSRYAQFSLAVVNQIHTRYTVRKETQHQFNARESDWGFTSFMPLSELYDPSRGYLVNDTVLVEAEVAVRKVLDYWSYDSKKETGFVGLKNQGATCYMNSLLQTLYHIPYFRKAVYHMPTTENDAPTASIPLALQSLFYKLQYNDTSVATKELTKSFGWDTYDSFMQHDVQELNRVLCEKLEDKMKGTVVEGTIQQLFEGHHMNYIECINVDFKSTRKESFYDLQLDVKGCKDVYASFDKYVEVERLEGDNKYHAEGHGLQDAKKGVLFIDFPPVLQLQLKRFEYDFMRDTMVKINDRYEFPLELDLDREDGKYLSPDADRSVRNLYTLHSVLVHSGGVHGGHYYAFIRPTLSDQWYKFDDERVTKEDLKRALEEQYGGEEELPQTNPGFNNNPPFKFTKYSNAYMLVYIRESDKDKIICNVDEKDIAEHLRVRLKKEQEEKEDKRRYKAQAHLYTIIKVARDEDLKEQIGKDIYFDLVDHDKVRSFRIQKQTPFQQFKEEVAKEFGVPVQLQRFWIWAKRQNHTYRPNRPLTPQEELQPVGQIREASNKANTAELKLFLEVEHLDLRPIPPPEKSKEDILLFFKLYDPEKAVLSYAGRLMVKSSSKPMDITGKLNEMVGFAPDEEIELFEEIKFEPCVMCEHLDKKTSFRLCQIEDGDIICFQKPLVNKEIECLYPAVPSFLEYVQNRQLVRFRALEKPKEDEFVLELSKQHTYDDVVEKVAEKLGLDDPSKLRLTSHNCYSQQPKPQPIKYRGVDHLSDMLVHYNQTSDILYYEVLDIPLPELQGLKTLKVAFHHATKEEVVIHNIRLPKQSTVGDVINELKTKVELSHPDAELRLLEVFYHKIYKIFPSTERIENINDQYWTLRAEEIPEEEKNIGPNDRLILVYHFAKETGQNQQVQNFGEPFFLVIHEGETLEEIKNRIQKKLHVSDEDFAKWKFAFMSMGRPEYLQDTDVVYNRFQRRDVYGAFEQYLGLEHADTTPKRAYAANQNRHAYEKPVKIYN

| binding [1] | binding (GST-UBP12 (full-length)) | binding [2] | binding [3] | Substance |
| --- | --- | --- | --- | --- |
| binds | binds |  |  | BES1-myc (dephosphorylated BES1-myc) (from UniProt Q9LN63 1-335) |
|  |  | binds | binds | BZR1 (BiFC construct) (from UniProt Q8S307 1-336) |
|  |  | binds | binds | nYFP-BES1 (from UniProt Q9LN63 1-335) |
